No constants are given. Whether binding was seen depends on the method and setting. In cells and extracts the contact can be indirect. Some binding calls cover weakened binding; strength is not graded here. Sequences can lack the tags named with a protein. One block for each binder: values may come before it.
Tests used:
GST-RB fusion protein = molecular target: T1, GST-RB fusion protein (UniProt P06400); assay: GST pull-down of S35-labeled in vitro translated protein with GST-RB
T1 sequence (looked up): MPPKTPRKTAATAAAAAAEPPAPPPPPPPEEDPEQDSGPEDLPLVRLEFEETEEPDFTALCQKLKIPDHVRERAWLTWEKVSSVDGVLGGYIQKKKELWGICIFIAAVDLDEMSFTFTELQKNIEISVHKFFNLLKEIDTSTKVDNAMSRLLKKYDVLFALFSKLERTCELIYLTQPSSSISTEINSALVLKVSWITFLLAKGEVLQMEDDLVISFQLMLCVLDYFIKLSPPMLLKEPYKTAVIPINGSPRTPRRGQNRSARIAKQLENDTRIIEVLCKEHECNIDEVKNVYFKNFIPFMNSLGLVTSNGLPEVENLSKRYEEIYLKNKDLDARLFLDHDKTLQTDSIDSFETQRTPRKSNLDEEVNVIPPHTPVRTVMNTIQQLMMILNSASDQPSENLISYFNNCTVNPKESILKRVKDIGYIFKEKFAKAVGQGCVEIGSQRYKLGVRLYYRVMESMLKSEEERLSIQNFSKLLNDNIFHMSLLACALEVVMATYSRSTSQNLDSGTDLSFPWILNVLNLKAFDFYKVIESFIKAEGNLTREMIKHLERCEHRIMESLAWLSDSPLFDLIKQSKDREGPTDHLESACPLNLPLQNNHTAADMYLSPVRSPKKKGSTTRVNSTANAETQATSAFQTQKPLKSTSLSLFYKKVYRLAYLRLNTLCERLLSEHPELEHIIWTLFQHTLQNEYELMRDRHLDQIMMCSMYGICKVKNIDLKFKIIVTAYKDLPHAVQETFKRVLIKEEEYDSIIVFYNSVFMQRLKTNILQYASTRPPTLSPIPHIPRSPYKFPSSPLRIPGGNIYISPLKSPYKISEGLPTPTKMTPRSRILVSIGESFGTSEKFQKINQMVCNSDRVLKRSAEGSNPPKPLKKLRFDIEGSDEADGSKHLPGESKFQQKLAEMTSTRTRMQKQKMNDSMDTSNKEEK

Amino acid sequences for entries named in this document (tags omitted).
UniProt Q9Z1E3: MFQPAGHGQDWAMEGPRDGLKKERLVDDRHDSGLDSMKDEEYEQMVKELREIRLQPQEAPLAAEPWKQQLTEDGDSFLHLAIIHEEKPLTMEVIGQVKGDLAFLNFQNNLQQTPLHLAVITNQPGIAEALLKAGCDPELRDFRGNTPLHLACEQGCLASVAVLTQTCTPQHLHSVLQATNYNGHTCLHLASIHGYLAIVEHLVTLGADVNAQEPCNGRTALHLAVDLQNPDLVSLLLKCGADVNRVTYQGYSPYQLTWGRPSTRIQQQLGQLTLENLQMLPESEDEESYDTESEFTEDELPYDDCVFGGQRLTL

[1] = molecular target: IκB-α, endogenous in NIH3T3 cells (UniProt Q9Z1E3); assay: co-immunoprecipitation from NIH3T3 cell extracts with anti-IκB-α antibody, immunoblot with antibody to PRMT2

binding (GST-RB fusion protein): binds
B1: PRMT2(1-218) (enzyme)
chain: MATSGDCPRSESQGEEPAECSEAGLLQEGVQPEEFVAIADYAATDETQLSFLRGEKILILRQTTADWWWGERAGCCGYIPANHVGKHVDEYDPEDTWQDEEYFGSYGTLKLHLEMLADQPRTTKYHSVILQNKESLTDKVILDVGCGTGIISLFCAHYARPRAVYAVEASEMAQHTGQLVLQNGFADIITVYQQKVEDVVLPEKVDVLVSEWMGTCLL
modifications: [35S]-methionine label

binding [1]: binds
B2: mouse PRMT2 (untagged; endogenous in NIH3T3 cells, MEFs, GT1-7 cells and VSMC, or expressed from mouse PRMT2 cDNA in HEK293 cells) (enzyme, UniProt Q9R144 1-448, looked up)
chain: MEAPGEGPCSESQVIPVLEEDPVDYGCEMQLLQDGAQLQLQLQPEEFVAIADYTATDETQLSFLRGEKILILRQTTADWWWGERAGCCGYIPANHLGKQLEEYDPEDTWQDEEYFDSYGTLKLHLEMLADQPRTTKYHSVILQNKESLKDKVILDVGCGTGIISLFCAHHARPKAVYAVEASDMAQHTSQLVLQNGFADTITVFQQKVEDVVLPEKVDVLVSEWMGTCLLFEFMIESILYARDTWLKGDGIIWPTTAALHLVPCSAEKDYHSKVLFWDNAYEFNLSALKSLAIKEFFSRPKSNHILKPEDCLSEPCTILQLDMRTVQVPDLETMRGELRFDIQKAGTLHGFTAWFSVYFQSLEEGQPQQVVSTGPLHPTTHWKQTLFMMDDPVPVHTGDVVHGFCCVTKKSGMEKAHVCLSELGCHVRTRSHVSTELETGSFRSGGDS
